This experiment can be described thus: qHTS Assay to Find Inhibitors of Chronic Active B-Cell Receptor Signaling. The settings on record: ABC-DLBCL IkBa-CBG/CBR reporter, luminescence ratio (green luciferase fused to IkBa over red control in TMD8 lymphoma cells), 4 h. The method in brief:
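Cell line TMD8 (human ABC DLBCL), stably expressing tet-inducible CBG68-IkBa fusion and CBR; IMDM/0.5% FBS; cpd up to 46 uM; dox induction, 4 h, 37C/5% CO2; dual luminescence; green/red ratio; MG132 control.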

The mark [1] stands for this setting: measured here: CBR red luminescence, cell number.
Setting [2] is: measured here: IkBa-CBG green luminescence.

SMILES strings stand for the structures. The list shows a part of the results. Further columns of the screen follow, without active or inactive calls. The list favours compounds with an active or inconclusive main result. Potencies come from curve fits of mixed quality, noted in brackets.

The term AC50 denotes the concentration giving half of the maximal activity seen.

As to `O=C(COC(=O)/C=C/c1cccc(Cl)c1)NC(=O)NCc1ccccc1`, the AC50 under setting [1] is 0.116 µM [falling, partial curve, poor fit]. As for `CC(=O)Nc1ccc(S(=O)(=O)Nc2nc3n(n2)C(c2ccccc2)CC(=O)N3)cc1` (configuration not stated), the AC50 by setting is: under setting [1], 3.66 µM [falling, full curve]; under setting [2], 2.91 µM [rising, full curve, poor fit]. For `O=C(CSCc1ccc(Cl)cc1Cl)Nc1ccc(O)cc1C(=O)O`, under setting [1], the AC50 is 10 µM [falling, partial curve, poor fit]. Still for that read-out and setting: the value for `COCCn1c(=S)[nH]c2cc(C(=O)N(CCO)Cc3ccccc3)ccc2c1=O` was 3.55 µM [falling, partial curve, poor fit]; that for `COc1c2n(C)ccc3c-2n(c(=O)c1=O)c1ccccc31` was 14.6 µM [rising, single point]. Same read-out and setting: next, `CCCCCCCCOC(=O)C(NC(=O)CCC(=O)Nc1ccc(S(N)(=O)=O)cc1)C(O)c1ccccc1` (configuration not stated): 0.82 µM [rising, full curve, poor fit]; `O=C(Nc1ccccc1C(=O)N1CCOCC1)c1cccnc1`: 13 µM [rising, partial curve]. The same measure, in the same setting: the value for `COc1ccc(C(=O)NCCc2ccccn2)cc1S(=O)(=O)Nc1ccc(Br)cc1` was 23.1 µM [rising, partial curve, poor fit]; that for `O=C(NCCCO)c1ccc(CSc2nc3ccccc3c(=O)[nH]2)cc1` was 1.41 µM [rising, partial curve, poor fit]. On to `C/C(=N\NS(=O)(=O)c1ccc(C)cc1)c1ccc(C)o1`, for which the AC50 under setting [1] is 15.8 µM [rising, partial curve, poor fit].

Consider `O=C(NCc1ccccc1F)C(=O)NCC(c1ccco1)S(=O)(=O)c1ccccc1` (configuration not stated), for which the AC50 under setting [1] was 0.631 µM [rising, full curve, poor fit].

For `N#Cc1ccsc1NC(=O)CCN1CCN(C(c2ccccc2)c2ccccc2)CC1`, under setting [1], the AC50 was 35.5 µM [falling, single point]. On to `Oc1[nH]c2ccccc2c1N=Nc1cccc(Cl)c1`, for which the AC50 under setting [1] was 3.16 µM [falling, partial curve, poor fit]. Same read-out and setting: the value for `Cc1ccc(C(=O)OCC(=O)Nc2ncc(Cl)cc2Cl)cc1NC(=O)c1ccco1` was 20.6 µM [rising, single point]. Turning to `Cc1c(Cc2ccccc2)sc(NC(=O)C(C)(C)C)c1C(N)=O`, the AC50 was 15.8 µM [falling, single point] under setting [1] and 12.6 µM [rising, partial curve, poor fit] under setting [2]. Regarding `CC(Sc1ncnc2ccccc12)C(=O)Nc1ccc2c(c1)OCCO2` (configuration not stated), the AC50 under setting [1] is 29.1 µM [falling, single point] and the AC50 under setting [2] is 25.9 µM [rising, partial curve, poor fit].

Take `N/C(=N\OC(=O)c1cccc(F)c1)c1cccc([N+](=O)[O-])c1`: the AC50 under setting [1] is 2.51 µM [rising, partial curve, poor fit].

Regarding `O=[N+]([O-])c1ccc(S(=O)(=O)c2ccccc2)nc1`, the AC50 under setting [1] was 11.2 µM [falling, partial curve, poor fit]. Same read-out and setting: the value for `CCOc1ccc2[nH]c(=O)c(CN(CCN3CCCC3)C(=S)Nc3ccccc3OCC)cc2c1` was 31.6 µM [falling, single point]; that for `O=C(Nc1ccccc1C(=O)O)c1ncn[nH]1` was 6.31 µM [rising, single point]. The same measure, in the same setting: the value for `COC(=O)c1sccc1NC(=O)c1ccccc1[N+](=O)[O-]` was 9.2 µM [rising, partial curve].

For the molecule `Cc1cccc(NC(=O)CN2CCN(CC(=O)Nc3ccc(-c4ccccc4)cc3)CC2)c1C`, the AC50 under setting [1] is 10 µM [falling, single point]. Same read-out and setting: next, `CCOC(=O)c1ccc(NC(=S)Nc2ccccc2)cc1`: 0.517 µM [rising, partial curve, poor fit]. Consider `CC(=O)c1c(C)[nH]c(C(=O)OCc2ccc(Br)cc2)c1C`, for which the AC50 under setting [1] is 17.8 µM [rising, partial curve, poor fit].

Regarding `Cc1cc(/C=N/NC(=O)c2ccsc2)c(C)n1-c1cnccn1`, the AC50 under setting [1] is 25.1 µM [falling, single point].

Take `COc1ccccc1N1C(=O)C2C(C(=O)c3ccccc3)=NN(c3ccc(Br)cc3)C2C1=O` (configuration not stated): under setting [1], the AC50 was 11.2 µM [rising, partial curve]. In the case of `COc1ccc(NS(=O)(=O)c2cc(-c3cnc(C4CC4)o3)ccc2C)cc1`, the AC50 under setting [2] was 10 µM [falling, partial curve]. Turning to `Cc1ccc(CNC(=O)CCCOc2cc(=O)n(C)c3ccccc23)o1`, the AC50 was 18.4 µM [rising, single point] under setting [1] and 20.6 µM [falling, single point] under setting [2]. On to `Cc1ccccc1N(C)C(=O)C1CCCN(c2ncnc3c2nc2n3CCCCC2)C1` (configuration not stated), for which the concentration at half-maximal activity (AC50) under setting [1] was 2.82 µM [rising, partial curve, poor fit]. The same measure, in the same setting: the value for `O=C(c1ccc(Cl)cc1)N1CCN(S(=O)(=O)/C=C/c2ccccc2)CC1` was 20.6 µM [falling, partial curve, poor fit]; that for `O=C(c1ccc(Cl)c([N+](=O)[O-])c1)N(Cc1ccc(Cl)cc1)C1CCS(=O)(=O)C1` (configuration not stated) was 29.1 µM [falling, partial curve, poor fit].

In the case of `Cc1cccc(N2C(=O)SC(N(CC(=O)O)c3cccc(C)c3)C2=O)c1` (configuration not stated), the AC50 under setting [1] was 12.6 µM [falling, partial curve, poor fit]. Consider `CCc1nc(SCC(=O)NNC(=O)c2ccc(C)cc2)c2ccccc2n1`, for which the AC50 under setting [1] was 20 µM [falling, single point].

Take `O=C(OCC(O)C(O)COC(=O)c1ccccc1)c1ccccc1` (configuration not stated): the AC50 under setting [1] is 0.708 µM [rising, partial curve, poor fit].

For `COc1ccc(C2NC(=S)NC(C)=C2C(=O)Nc2ccccn2)cc1OC` (configuration not stated), the AC50 under setting [1] is 0.92 µM [rising, full curve, poor fit]. The same measure, in the same setting: the value for `COc1ccc(CCNC(=O)C2CCC(=O)N2Cc2ccccc2Cl)cc1OC` (configuration not stated) was 6.31 µM [rising, single point]; that for `O=C(N/N=C\c1cccnc1)c1ccccc1O` was 5.01 µM [falling, partial curve]; that for `COc1cccc2cc(C(=O)NCc3ccco3)c(=O)oc12` was 18.4 µM [falling, single point]. In the case of `CCCc1ccc2oc(C(=O)NCCc3nc(C(=O)OCC)cs3)c(C)c2c1`, the AC50 under setting [1] was 35.5 µM [falling, single point]. Same read-out and setting: next, `Cc1cccc(CCNc2nc3ccccc3n3nnnc23)c1`: 5.62 µM [falling, partial curve, poor fit]. As for `N#CCOc1nc(N2CCCCC2)nc(N2CCCCC2)n1`, the AC50 reads like this: under setting [1], 8.91 µM [rising, partial curve]; under setting [2], 35.5 µM [falling, single point]. On to `Nc1c(C(=O)Nc2ccccc2F)sc2nc(Cc3ccccc3)cc(C(F)(F)F)c12`, for which the AC50 under setting [1] was 10.3 µM [rising, partial curve, poor fit]. The same measure, in the same setting: next, `O=C1CN(C(=O)COC(=O)c2ccc(C(F)(F)F)cc2)c2ccccc2N1`: 2.91 µM [rising, partial curve, poor fit]; `Cc1ccc(C(=O)ONC(=O)c2ccc(Cl)cc2)cc1[N+](=O)[O-]`: 15.8 µM [rising, single point]; `O=C1OCCN1C(=O)[C@H]1[C@H](c2ccc(Cl)cc2)C(c2ccccc2)=NN1c1ccc(Br)cc1`: 5.8 µM [rising, single point]. The same measure, in the same setting: next, `COc1ccc(CC(=O)Nc2cccc3ccccc23)cc1OC`: 35.5 µM [falling, single point]; `Nc1c(C(=O)NCc2ccco2)nnn1-c1ccccc1`: 20 µM [falling, single point]. The same measure, in the same setting: next, `CCCCc1ccc(S(N)(=O)=O)cc1`: 35.5 µM [rising, single point]. As for `Cn1cc(Br)c(C(=O)Nc2sc3c(c2C(N)=O)CCC3)n1`, the AC50 is 6.51 µM [falling, single point] under setting [1] and 29.1 µM [falling, single point] under setting [2]. `Cc1cccc(-n2cc(CN3CCCN(C=O)CC3)c(-c3cccc(F)c3)n2)c1`: the AC50 under setting [1] is 2.82 µM [rising, full curve]. On the same count and under the same terms, next, `Cc1cccc(NC(=O)/C(C#N)=C/c2cccc([N+](=O)[O-])c2)n1`: 28.2 µM [falling, single point]; `O=C(c1ccc2ccccc2n1)N1CCN(c2ccccc2)CC1`: 23.1 µM [rising, partial curve, poor fit]. `COc1ccccc1-c1cc2nc(C)c(CCC(=O)NC(C)CCc3ccco3)c(C)n2n1` (configuration not stated): the AC50 under setting [1] was 2.06 µM [falling, partial curve].

In the case of `O=C(Nc1cccc(Cl)c1)C1=Cc2cc(Cl)ccc2OC1`, the AC50 under setting [1] is 6.51 µM [rising, single point]. Regarding `Cc1cccc(NC(=S)N/N=C(\c2ccccc2)C(C)C)c1`, under setting [1], the AC50 was 3.55 µM [rising, full curve]. Same read-out and setting: next, `COc1ccc(Cn2c(C3CCCCC3)nc3c(c(=O)c4ccccc4n3C)c2=O)cc1`: 10 µM [rising, partial curve, poor fit]. On the same count and under the same terms, the value for `COC(=O)c1cccc(NC(=O)c2ccc(OC)c(Cl)c2)c1` was 20 µM [falling, partial curve, poor fit]. Same read-out and setting: the value for `Cc1ccc(NC(=O)C2=C(O)CCn3c2nc2ccccc23)cc1` was 2.31 µM [falling, partial curve]. As to `Cc1cc(C)c(C#N)c(SCC(=O)c2cccs2)n1`, under setting [1], the concentration at half-maximal activity (AC50) is 7.31 µM [falling, partial curve]. On the same count and under the same terms, the value for `CC(C)(C)CC(C)(C)NC1=CC(=O)OC12CCCCC2` was 18.4 µM [rising, single point]. The same measure, in the same setting: next, `COc1cc2c(c3oc(=O)cc(CC(=O)O)c13)CCC(C)(C)O2`: 10 µM [rising, partial curve, poor fit].

These data come from PubChem BioAssay AID493014 (National Center for Advancing Translational Sciences (NCATS), 2011).
